According to paper PMC11720480:
No constants are given. Whether binding was seen depends on the method and setting. Some binding calls cover weakened binding; strength is not graded here. Tags and fused reporters may be left off the sequences shown.

Target: T1, OsNAR2.1 (rice high-affinity nitrate transporter-activating protein 2.1), yeast two-hybrid fusion (O. sativa) (UniProt Q6ZI50)
T1 sequence: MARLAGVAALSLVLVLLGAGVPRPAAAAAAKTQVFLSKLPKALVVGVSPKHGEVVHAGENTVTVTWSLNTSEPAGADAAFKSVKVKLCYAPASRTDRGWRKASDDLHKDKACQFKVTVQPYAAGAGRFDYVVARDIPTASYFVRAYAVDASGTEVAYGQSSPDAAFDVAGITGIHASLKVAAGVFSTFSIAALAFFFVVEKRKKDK
Assay: two-hybrid; yeast strain NMY51, vectors pBT3-STE and pPR3-N, co-transformants spotted on SD-Trp-Leu and SD-Trp-Leu-His-Ade, growth observed after 48-72 h

binding: binds
B1: OsNRT2.3a (rice high-affinity nitrate transporter 2.3), yeast two-hybrid fusion (protein, UniProt Q94JG1-1 1-516)
chain: MEAKPVAMEVEGVEAAGGKPRFRMPVDSDLKATEFWLFSFARPHMASFHMAWFSFFCCFVSTFAAPPLLPLIRDTLGLTATDIGNAGIASVSGAVFARLAMGTACDLVGPRLASASLILLTTPAVYCSSIIQSPSGYLLVRFFTGISLASFVSAQFWMSSMFSAPKVGLANGVAGGWGNLGGGAVQLLMPLVYEAIHKIGSTPFTAWRIAFFIPGLMQTFSAIAVLAFGQDMPGGNYGKLHKTGDMHKDSFGNVLRHALTNYRGWILALTYGYSFGVELTIDNVVHQYFYDRFDVNLQTAGLIAASFGMANIISRPGGGLLSDWLSSRYGMRGRLWGLWTVQTIGGVLCVVLGIVDFSFAASVAVMVLFSFFVQAACGLTFGIVPFVSRRSLGLISGMTGGGGNVGAVLTQYIFFHGTKYKTETGIKYMGLMIIACTLPVMLIYFPQWGGMLVGPRKGATAEEYYSREWSDHEREKGFNAASVRFAENSVREGGRSSANGGQPRHTVPVDASPAGV
